Assay results taken from publication PMC8384837.
Numbering of substitutions follows the chain as printed. This is one part of the list. For some of these results: At the low end of the ranking the order means little. For some of these results: The source does not settle which construct or isoform was used.

Assays:
Settings in all cases: yeast three-hybrid, YBZ-1, SC-Leu-His + 0.5 mM 3-AT, 4 days
[1] = target: T1, PUM1 PUF domain R2-VFQ R3-THE R4-TFR N899V + Y900F + C935T + R936H + Q939E + N971T + H972F + Q975R (UniProt Q14671)
T1 sequence: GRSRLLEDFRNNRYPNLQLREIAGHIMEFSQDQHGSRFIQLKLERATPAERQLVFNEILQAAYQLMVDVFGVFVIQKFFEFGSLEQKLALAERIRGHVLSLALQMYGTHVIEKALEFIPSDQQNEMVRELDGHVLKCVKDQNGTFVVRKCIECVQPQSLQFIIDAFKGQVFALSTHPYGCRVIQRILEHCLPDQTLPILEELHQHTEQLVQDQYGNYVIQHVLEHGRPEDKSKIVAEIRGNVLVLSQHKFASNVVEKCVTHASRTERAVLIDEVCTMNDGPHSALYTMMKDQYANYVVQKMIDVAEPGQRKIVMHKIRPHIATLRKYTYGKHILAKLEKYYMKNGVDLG

[2] = target: T2, PUM1 PUF domain R6-SWD R7-NPG N1043S + Y1044W + Q1047D + S1079N + N1080P + E1083G (Homo sapiens) (UniProt Q14671)
T2 sequence: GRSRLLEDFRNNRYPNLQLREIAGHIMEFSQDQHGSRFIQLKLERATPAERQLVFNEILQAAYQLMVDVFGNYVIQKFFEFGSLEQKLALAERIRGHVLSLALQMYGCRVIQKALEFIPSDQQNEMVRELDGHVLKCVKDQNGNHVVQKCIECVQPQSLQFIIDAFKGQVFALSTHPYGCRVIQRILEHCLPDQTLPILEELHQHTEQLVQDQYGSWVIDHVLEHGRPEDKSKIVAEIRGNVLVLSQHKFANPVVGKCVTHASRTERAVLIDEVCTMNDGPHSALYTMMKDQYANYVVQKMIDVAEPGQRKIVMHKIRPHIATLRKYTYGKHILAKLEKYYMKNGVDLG

[3] = target: T3, PUM1 PUF domain R3-THE R4-TFR C935T + R936H + Q939E + N971T + H972F + Q975R (UniProt Q14671)
T3 sequence: T1 sequence with V72N, F73Y

[4] = target: T4, PUM1 PUF domain R5-PHQ R6-SWD C1007P + R1008H + N1043S + Y1044W + Q1047D (UniProt Q14671)
T4 sequence: T2 sequence with C180P, R181H, N252S, P253N, G256E

| Sequence | binding signal (log2 enrichment (interaction score)) [1] | binding signal (log2 enrichment (interaction score)) [2] | binding signal (log2 enrichment (interaction score)) [3] | binding signal (log2 enrichment (interaction score)) [4] |
| --- | --- | --- | --- | --- |
| GGCUAGAACUAGUGGAUCCCCCGGCGCCCGGCGGCUCGAGCCCGGGUAAGCUGGAGAAGUCUGCAUGCCGCCGGGCGCCAUGCCUGCAGGUCGACUCUAGAAAACAUG | -5.47 | < -0.81 |  |  |
| GGCUAGAACUAGUGGAUCCCCCGGCGCCCGGCGGCUCGAGCCCGGGUAAGUUGCCGUCGUCUGCAUGCCGCCGGGCGCCAUGCCUGCAGGUCGACUCUAGAAAACAUG |  |  | -6.61 |  |
| GGCUAGAACUAGUGGAUCCCCCGGCGCCCGGCGGCUCGAGCCCGGGUAAGUUUACAAAGUCUGCAUGCCGCCGGGCGCCAUGCCUGCAGGUCGACUCUAGAAAACAUG | < -5.76 | -0.65 |  |  |
| GGCUAGAACUAGUGGAUCCCCCGGCGCCCGGCGGCUCGAGCCCGGGUAAGUAGAAGAUGUCUGCAUGCCGCCGGGCGCCAUGCCUGCAGGUCGACUCUAGAAAACAUG | < -6.35 |  |  | -7.87 |
| GGCUAGAACUAGUGGAUCCCCCGGCGCCCGGCGGCUCGAGCCCGGGUAAGCUCAGACAGUCUGCAUGCCGCCGGGCGCCAUGCCUGCAGGUCGACUCUAGAAAACAUG | -5.68 | -1.65 |  |  |
| GGCUAGAACUAGUGGAUCCCCCGGCGCCCGGCGGCUCGAGCCCGGGUAAGAUUAAUUAGUCUGCAUGCCGCCGGGCGCCAUGCCUGCAGGUCGACUCUAGAAAACAUG |  |  | -5.96 |  |
| GGCUAGAACUAGUGGAUCCCCCGGCGCCCGGCGGCUCGAGCCCGGGUAAGUGCAAGACGUCUGCAUGCCGCCGGGCGCCAUGCCUGCAGGUCGACUCUAGAAAACAUG | -5.78 |  |  | < -7.91 |
| GGCUAGAACUAGUGGAUCCCCCGGCGCCCGGCGGCUCGAGCCCGGGUAAGAUGAAGUUGUCUGCAUGCCGCCGGGCGCCAUGCCUGCAGGUCGACUCUAGAAAACAUG | -5.58 | -1.53 |  | -7.54 |
| GGCUAGAACUAGUGGAUCCCCCGGCGCCCGGCGGCUCGAGCCCGGGUAAGUGUGAAAGGUCUGCAUGCCGCCGGGCGCCAUGCCUGCAGGUCGACUCUAGAAAACAUG | -5.18 |  |  | < -7.25 |
| GGCUAGAACUAGUGGAUCCCCCGGCGCCCGGCGGCUCGAGCCCGGGUAAGCGUACGUAGUCUGCAUGCCGCCGGGCGCCAUGCCUGCAGGUCGACUCUAGAAAACAUG | -5.23 |  |  | < -6.94 |
| GGCUAGAACUAGUGGAUCCCCCGGCGCCCGGCGGCUCGAGCCCGGGUAAGUAGAGAGGGUCUGCAUGCCGCCGGGCGCCAUGCCUGCAGGUCGACUCUAGAAAACAUG | < -5.64 |  |  | -7.16 |
| GGCUAGAACUAGUGGAUCCCCCGGCGCCCGGCGGCUCGAGCCCGGGUAAGUUGCAGGAGUCUGCAUGCCGCCGGGCGCCAUGCCUGCAGGUCGACUCUAGAAAACAUG | -5.79 |  |  | < -7.71 |
| GGCUAGAACUAGUGGAUCCCCCGGCGCCCGGCGGCUCGAGCCCGGGUAAGUGGGAGGCGUCUGCAUGCCGCCGGGCGCCAUGCCUGCAGGUCGACUCUAGAAAACAUG | -4.99 | -1.19 |  | -7.44 |
| GGCUAGAACUAGUGGAUCCCCCGGCGCCCGGCGGCUCGAGCCCGGGUAAGAUCAAAUAGUCUGCAUGCCGCCGGGCGCCAUGCCUGCAGGUCGACUCUAGAAAACAUG | -4.42 |  |  | -8.29 |
| GGCUAGAACUAGUGGAUCCCCCGGCGCCCGGCGGCUCGAGCCCGGGUAAGAGGAAGUCGUCUGCAUGCCGCCGGGCGCCAUGCCUGCAGGUCGACUCUAGAAAACAUG | -5.08 |  |  | -6.77 |
| GGCUAGAACUAGUGGAUCCCCCGGCGCCCGGCGGCUCGAGCCCGGGUAAGUAGAGUCCGUCUGCAUGCCGCCGGGCGCCAUGCCUGCAGGUCGACUCUAGAAAACAUG | -5.24 | -0.6 |  |  |
| GGCUAGAACUAGUGGAUCCCCCGGCGCCCGGCGGCUCGAGCCCGGGUAAGUUGUUGACGUCUGCAUGCCGCCGGGCGCCAUGCCUGCAGGUCGACUCUAGAAAACAUG | -6.14 | -1.58 |  |  |
| GGCUAGAACUAGUGGAUCCCCCGGCGCCCGGCGGCUCGAGCCCGGGUAAGUUGCAAGAGUCUGCAUGCCGCCGGGCGCCAUGCCUGCAGGUCGACUCUAGAAAACAUG | -5.8 |  |  | < -7.1 |
| GGCUAGAACUAGUGGAUCCCCCGGCGCCCGGCGGCUCGAGCCCGGGUAAGUUGAUAAAGUCUGCAUGCCGCCGGGCGCCAUGCCUGCAGGUCGACUCUAGAAAACAUG | -4.91 | -0.93 |  | -7.69 |
| GGCUAGAACUAGUGGAUCCCCCGGCGCCCGGCGGCUCGAGCCCGGGUAAGUGCGAUAGGUCUGCAUGCCGCCGGGCGCCAUGCCUGCAGGUCGACUCUAGAAAACAUG | -5.37 | -0.52 |  |  |
| GGCUAGAACUAGUGGAUCCCCCGGCGCCCGGCGGCUCGAGCCCGGGUAAGUUCGUGAAGUCUGCAUGCCGCCGGGCGCCAUGCCUGCAGGUCGACUCUAGAAAACAUG | -5.19 | -1.04 |  |  |
| GGCUAGAACUAGUGGAUCCCCCGGCGCCCGGCGGCUCGAGCCCGGGUAAGGGGACAACGUCUGCAUGCCGCCGGGCGCCAUGCCUGCAGGUCGACUCUAGAAAACAUG | -5.89 |  |  | < -7.73 |
| GGCUAGAACUAGUGGAUCCCCCGGCGCCCGGCGGCUCGAGCCCGGGUAAGUGGCAUACGUCUGCAUGCCGCCGGGCGCCAUGCCUGCAGGUCGACUCUAGAAAACAUG | -5.44 |  |  | < -7.8 |
| GGCUAGAACUAGUGGAUCCCCCGGCGCCCGGCGGCUCGAGCCCGGGUAAGGCGAAGUAGUCUGCAUGCCGCCGGGCGCCAUGCCUGCAGGUCGACUCUAGAAAACAUG | -6.45 |  |  | < -7.4 |

A second format for part of the listing above.
Sequence	binding signal (log2 enrichment (interaction score)) [1]	binding signal (log2 enrichment (interaction score)) [2]	binding signal (log2 enrichment (interaction score)) [3]	binding signal (log2 enrichment (interaction score)) [4]
GGCUAGAACUAGUGGAUCCCCCGGCGCCCGGCGGCUCGAGCCCGGGUAAGUAGAGAGGGUCUGCAUGCCGCCGGGCGCCAUGCCUGCAGGUCGACUCUAGAAAACAUG	< -5.64			-7.16
GGCUAGAACUAGUGGAUCCCCCGGCGCCCGGCGGCUCGAGCCCGGGUAAGUUGCAGGAGUCUGCAUGCCGCCGGGCGCCAUGCCUGCAGGUCGACUCUAGAAAACAUG	-5.79			< -7.71
